Measurements taken from doi:10.1101/2023.11.20.567203.
These are yes or no findings as the source states them, for the method shown. In cells and extracts the contact can be indirect. Some results given as binding are weak or reduced against the parent protein; the word gives no strength.

Amino acid sequences for entries named in this document (tags omitted).
UniProt Q9UKV8: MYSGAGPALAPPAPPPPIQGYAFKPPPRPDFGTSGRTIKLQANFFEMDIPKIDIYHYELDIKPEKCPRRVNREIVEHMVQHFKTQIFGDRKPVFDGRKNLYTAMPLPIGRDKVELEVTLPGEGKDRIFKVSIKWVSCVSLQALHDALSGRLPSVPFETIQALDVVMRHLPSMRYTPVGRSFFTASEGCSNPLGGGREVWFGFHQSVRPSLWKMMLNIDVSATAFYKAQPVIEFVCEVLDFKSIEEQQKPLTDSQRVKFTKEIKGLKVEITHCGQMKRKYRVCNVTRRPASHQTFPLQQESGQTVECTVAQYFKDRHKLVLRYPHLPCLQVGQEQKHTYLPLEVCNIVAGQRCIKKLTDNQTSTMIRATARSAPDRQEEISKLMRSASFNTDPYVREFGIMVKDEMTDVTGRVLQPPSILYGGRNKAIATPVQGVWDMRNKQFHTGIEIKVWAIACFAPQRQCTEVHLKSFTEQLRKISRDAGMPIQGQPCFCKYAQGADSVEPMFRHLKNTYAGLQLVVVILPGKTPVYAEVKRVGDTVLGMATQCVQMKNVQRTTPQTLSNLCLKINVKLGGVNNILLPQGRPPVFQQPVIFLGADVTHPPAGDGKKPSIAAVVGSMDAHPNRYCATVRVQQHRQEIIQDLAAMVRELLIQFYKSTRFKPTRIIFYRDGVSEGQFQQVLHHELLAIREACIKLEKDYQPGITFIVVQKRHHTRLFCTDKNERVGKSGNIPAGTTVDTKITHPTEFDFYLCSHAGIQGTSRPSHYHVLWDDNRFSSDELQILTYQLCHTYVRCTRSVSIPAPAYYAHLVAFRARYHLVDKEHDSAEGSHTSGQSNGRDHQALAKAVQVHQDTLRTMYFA
UniProt Q9UPY3: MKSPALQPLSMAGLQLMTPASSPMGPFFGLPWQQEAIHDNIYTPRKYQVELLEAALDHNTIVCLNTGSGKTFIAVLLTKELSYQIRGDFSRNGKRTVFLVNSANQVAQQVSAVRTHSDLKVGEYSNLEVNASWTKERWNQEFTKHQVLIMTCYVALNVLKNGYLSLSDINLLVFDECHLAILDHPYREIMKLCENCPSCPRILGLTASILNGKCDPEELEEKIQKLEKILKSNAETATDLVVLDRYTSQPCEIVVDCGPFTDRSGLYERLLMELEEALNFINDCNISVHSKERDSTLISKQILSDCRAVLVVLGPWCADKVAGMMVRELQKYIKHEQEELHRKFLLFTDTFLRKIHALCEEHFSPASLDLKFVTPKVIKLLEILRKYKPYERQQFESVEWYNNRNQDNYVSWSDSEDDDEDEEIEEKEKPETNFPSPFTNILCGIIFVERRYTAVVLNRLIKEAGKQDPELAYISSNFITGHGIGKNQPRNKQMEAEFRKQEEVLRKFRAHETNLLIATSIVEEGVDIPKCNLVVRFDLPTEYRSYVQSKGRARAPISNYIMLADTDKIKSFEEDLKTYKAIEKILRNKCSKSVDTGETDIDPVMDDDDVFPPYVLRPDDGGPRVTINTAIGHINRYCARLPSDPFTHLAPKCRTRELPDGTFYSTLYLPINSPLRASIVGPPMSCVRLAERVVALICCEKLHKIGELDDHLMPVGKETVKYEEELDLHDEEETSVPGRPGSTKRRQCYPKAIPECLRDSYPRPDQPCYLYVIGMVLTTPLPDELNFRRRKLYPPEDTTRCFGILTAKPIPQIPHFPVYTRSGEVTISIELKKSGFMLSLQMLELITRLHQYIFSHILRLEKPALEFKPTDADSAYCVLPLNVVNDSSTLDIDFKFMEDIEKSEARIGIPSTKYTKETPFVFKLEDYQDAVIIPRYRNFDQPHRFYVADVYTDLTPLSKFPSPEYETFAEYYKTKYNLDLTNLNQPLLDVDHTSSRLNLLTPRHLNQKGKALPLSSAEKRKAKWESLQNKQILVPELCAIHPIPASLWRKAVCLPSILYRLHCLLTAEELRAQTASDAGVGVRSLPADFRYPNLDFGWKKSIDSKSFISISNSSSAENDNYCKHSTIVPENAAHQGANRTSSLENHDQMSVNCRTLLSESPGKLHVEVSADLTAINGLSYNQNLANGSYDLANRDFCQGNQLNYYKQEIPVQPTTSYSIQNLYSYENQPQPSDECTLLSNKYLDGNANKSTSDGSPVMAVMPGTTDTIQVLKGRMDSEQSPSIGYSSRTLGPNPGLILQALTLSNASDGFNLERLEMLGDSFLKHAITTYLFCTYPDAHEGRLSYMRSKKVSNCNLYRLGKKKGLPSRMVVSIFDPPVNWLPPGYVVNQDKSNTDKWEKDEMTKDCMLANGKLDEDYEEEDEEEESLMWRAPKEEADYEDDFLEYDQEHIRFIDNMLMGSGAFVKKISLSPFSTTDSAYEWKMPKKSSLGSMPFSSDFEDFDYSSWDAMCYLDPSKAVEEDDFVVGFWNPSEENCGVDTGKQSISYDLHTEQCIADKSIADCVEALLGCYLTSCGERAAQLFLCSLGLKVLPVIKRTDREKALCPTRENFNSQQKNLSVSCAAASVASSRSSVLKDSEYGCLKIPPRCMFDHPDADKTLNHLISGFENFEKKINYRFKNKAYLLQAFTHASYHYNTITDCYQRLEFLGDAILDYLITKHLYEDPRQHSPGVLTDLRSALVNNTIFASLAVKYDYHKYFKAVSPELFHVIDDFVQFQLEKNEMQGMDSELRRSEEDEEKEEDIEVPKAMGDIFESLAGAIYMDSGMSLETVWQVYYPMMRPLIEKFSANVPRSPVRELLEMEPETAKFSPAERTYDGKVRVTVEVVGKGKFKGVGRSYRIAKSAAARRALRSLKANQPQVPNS
UniProt Q8NDV7: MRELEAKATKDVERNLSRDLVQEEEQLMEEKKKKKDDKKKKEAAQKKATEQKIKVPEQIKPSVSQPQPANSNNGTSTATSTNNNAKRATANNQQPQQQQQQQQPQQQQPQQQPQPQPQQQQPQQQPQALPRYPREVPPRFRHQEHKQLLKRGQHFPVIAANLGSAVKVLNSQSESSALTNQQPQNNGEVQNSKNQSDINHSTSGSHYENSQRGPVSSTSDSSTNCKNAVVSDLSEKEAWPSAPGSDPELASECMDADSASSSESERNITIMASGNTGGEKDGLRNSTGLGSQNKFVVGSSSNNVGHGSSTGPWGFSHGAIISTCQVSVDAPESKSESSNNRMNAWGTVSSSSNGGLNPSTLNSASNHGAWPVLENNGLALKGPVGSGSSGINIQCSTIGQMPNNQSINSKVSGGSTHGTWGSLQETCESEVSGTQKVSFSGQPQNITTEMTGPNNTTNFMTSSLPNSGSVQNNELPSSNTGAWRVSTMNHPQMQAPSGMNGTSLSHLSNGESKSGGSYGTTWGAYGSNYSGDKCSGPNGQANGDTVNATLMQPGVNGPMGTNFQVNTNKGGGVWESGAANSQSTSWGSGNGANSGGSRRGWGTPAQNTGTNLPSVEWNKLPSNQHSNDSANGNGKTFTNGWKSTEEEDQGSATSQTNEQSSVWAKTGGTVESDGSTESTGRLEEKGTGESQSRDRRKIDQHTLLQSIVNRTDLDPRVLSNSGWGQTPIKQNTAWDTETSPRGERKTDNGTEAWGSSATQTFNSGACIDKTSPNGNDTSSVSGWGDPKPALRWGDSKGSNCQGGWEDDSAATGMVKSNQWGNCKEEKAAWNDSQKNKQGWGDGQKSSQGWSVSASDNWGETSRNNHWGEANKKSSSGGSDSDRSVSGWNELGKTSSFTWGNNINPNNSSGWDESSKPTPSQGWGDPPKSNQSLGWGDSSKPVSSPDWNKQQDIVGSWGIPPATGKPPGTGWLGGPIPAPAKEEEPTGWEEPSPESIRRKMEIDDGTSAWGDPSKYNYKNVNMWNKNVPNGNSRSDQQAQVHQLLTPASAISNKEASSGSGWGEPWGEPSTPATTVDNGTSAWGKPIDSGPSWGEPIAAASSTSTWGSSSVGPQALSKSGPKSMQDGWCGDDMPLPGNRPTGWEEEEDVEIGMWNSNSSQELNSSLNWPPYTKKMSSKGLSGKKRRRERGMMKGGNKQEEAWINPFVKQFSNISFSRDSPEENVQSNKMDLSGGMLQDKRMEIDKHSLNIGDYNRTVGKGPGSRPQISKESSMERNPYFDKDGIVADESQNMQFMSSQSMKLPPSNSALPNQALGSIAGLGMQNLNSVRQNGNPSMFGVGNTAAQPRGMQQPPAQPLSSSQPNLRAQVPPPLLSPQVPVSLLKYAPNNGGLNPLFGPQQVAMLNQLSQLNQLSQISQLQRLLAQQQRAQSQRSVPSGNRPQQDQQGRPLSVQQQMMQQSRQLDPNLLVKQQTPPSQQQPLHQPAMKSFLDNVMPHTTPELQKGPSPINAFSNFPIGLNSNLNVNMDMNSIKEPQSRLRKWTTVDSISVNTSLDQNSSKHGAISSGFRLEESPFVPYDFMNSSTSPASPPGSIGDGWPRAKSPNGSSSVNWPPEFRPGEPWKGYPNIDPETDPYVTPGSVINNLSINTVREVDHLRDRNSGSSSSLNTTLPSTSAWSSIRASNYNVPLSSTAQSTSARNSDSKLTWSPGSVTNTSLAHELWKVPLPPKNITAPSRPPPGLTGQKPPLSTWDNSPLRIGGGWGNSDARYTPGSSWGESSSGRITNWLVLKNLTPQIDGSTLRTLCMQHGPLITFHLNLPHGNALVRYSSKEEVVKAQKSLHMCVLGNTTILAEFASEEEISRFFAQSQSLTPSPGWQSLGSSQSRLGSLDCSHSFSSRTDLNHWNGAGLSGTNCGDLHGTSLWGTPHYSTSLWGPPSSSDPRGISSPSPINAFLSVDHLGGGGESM

Biological target: Argonaute 2 (AGO2), endogenous untagged (human (endogenous in A549)) (UniProt Q9UKV8)
Experiment: co-IP

binding	Substance
binds	Dicer (from UniProt Q9UPY3 1-1922) (enzyme)
binds	TNRC6A (from UniProt Q8NDV7 1-1962)
